{"sequences": {"note": "Sequences of proteins named here, by UniProt entry; tags and fusion partners are left off.", "UniProt P05429": "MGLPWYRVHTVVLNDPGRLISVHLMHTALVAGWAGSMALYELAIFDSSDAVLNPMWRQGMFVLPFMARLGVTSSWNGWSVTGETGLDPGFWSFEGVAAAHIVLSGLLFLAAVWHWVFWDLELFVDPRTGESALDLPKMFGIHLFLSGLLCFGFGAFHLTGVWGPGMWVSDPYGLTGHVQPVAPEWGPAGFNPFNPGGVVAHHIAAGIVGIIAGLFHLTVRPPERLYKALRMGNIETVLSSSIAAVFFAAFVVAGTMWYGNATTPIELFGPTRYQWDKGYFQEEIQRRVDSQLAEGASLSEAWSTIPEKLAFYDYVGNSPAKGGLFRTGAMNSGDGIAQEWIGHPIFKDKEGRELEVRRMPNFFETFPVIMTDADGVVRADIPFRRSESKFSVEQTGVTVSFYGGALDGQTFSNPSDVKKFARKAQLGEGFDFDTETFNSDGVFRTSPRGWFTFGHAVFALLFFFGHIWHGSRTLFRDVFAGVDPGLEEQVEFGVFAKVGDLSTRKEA", "UniProt P14835": "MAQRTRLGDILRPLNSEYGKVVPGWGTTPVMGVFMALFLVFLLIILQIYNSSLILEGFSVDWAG", "UniProt P09190": "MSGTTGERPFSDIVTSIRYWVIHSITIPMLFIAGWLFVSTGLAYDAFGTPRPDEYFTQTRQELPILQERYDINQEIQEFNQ"}, "source": "paper PMC3497071", "key": {"[1]": {"biological_target": "His-tagged CP47 (CP47 apopolypeptide with a C-terminal His6-tag) (Synechocystis sp. PCC 6803) (UniProt P05429)", "assay": "pull-down; RC47-His isolated by the His6-tag of CP47: Ni2+-affinity chromatography of detergent-solubilized thylakoid membranes of ΔCP43/CP47-His, then DEAE anion exchange (KPN buffer, 0.04% β-DM, MgSO4 gradient 5-200 mM); SDS-PAGE and immunoblots"}, "[2]": {"biological_target": "His-tagged CP47 (CP47 apopolypeptide with a C-terminal His6-tag) (Synechocystis sp. PCC 6803) (UniProt P05429)", "assay": "co-purification, cyt b-559 found by reduced-minus-oxidized difference spectroscopy; isolated RC47-His (10 µg Chl a) in KPN buffer with 1 µM ferricyanide, dithionite added, 520-600 nm"}, "[3]": {"biological_target": "T1, His-tagged Psb28 (Synechocystis sp. PCC 6803) (UniProt Q55356)", "T1 sequence": "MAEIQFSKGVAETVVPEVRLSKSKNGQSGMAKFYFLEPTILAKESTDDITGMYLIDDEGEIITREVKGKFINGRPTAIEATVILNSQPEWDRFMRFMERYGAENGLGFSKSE", "assay": "pull-down; His-tagged Psb28 isolated from thylakoid membranes as described in ref. 26; preparation on CN-PAGE/SDS-PAGE, Sypro Orange"}}, "note": "These are yes or no findings as the source states them, for the method shown. For part of these data: Binding seen in cells or lysates may run through a third protein. Some binding calls cover weakened binding; strength is not graded here. For part of these data: Where a sequence is shown, tags or fusion partners need not be part of it."}
{"substance": "PsbH (from UniProt P14835 1-64)", "values": [{"measurement": "binding", "setting": "[1]", "value": "binds"}]}
{"substance": "PsbE (from UniProt P09190 1-81)", "values": [{"measurement": "binding", "setting": "[2]", "value": "binds"}]}
{"substance": "RC47 assembly complex (PSII core complex lacking CP43), untagged (from UniProt P05429 1-507; P16033 1-344; P09192 1-352; P09190 1-81; P09191 1-44; P14835 1-64; Q54697 1-38; Q55354 1-39; P72701 1-35; P74787 1-31; P72575 1-39; P73676 1-39)", "values": [{"measurement": "binding", "setting": "[3]", "value": "binds"}]}
